Experimental data reported in patent US20040197827A1.
These are yes or no findings as the source states them, for the method shown. Some results given as binding are weak or reduced against the parent protein; the word gives no strength.

Amino acid sequences for entries named in this document (tags omitted). A change or cut given only in a name is not applied to a line headed by its entry. Residues count along the entry.
UniProt P10275, residues 325-918: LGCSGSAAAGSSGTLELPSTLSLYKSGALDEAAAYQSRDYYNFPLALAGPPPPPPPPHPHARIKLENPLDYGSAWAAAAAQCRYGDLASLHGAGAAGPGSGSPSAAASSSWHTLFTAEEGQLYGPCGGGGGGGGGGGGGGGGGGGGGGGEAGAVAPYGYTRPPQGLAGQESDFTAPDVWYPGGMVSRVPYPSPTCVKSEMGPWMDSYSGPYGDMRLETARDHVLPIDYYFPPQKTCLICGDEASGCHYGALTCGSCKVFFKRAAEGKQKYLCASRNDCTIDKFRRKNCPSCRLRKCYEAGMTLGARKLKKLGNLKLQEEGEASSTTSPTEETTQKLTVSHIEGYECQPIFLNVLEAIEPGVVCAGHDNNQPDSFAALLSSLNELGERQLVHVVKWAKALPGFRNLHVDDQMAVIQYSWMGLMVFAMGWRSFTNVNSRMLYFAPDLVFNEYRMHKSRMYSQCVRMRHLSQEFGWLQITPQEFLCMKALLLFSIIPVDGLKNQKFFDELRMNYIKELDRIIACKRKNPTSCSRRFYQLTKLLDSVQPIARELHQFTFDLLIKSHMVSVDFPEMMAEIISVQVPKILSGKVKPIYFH
UniProt Q01844: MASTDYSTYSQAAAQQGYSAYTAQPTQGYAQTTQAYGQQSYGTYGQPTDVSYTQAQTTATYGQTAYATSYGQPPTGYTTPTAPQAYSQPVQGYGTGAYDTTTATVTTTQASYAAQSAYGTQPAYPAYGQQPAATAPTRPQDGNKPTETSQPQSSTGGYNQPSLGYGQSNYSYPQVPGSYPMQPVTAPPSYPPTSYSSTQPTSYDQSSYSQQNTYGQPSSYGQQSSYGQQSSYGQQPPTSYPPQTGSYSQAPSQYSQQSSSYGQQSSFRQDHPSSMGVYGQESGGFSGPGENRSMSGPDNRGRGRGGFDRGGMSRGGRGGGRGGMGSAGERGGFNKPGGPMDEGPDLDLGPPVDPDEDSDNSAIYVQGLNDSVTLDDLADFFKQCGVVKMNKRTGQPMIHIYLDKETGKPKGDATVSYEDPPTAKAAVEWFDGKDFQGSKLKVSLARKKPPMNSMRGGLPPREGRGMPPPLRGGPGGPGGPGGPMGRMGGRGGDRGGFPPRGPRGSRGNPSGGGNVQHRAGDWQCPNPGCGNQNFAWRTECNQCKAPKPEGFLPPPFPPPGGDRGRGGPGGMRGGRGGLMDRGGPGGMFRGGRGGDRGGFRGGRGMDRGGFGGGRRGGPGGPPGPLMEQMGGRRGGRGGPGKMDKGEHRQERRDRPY

Biological target: androgen receptor fragment AR2 (AS 325-918), C-terminus with the DNA and ligand binding domains (human) (UniProt P10275)
Test: yeast two-hybrid system (beta-galactosidase positive clones)

Question: With “C-terminal part of human EWS (AS 319-656) (from UniProt Q01844 319-656)” as the substance, how does the binding read?
Answer: Its binding is “binds”.
